Data as given in PubChem BioAssay AID686938 (Drosophila RNAi Screening Center, 2013).
Assay: 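Looking for CRAC channel components and the factors controlling them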 (primary screen). System: Drosophila S2R+ cells. Reagent: long dsRNA against Drosophila genes, about 0.25 µg dsRNA per well, roughly 10,000 cells. Timing: 5 days of knock-down before the calcium assay. Conditions: thapsigargin (SERCA pump blocker) to empty calcium stores; entry signal taken 4 min after adding it. Measured: 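Duplicate raw fluo-4 intensities per well from a plate reader, at rest and four minutes after thapsigargin emptied calcium stores; entry-to-rest ratio filled for only some wells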. Scale: calcium entry signal: higher = stronger calcium signal after store depletion; resting calcium signal: higher = higher resting calcium signal. Call rule: 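Called when the plate z-score of the entry-to-rest ratio, mean of duplicates, falls below −3; wells with low overall dye signal (Fmax z below −2) or more than five off-targets excluded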. Meaning of the calls: active = strongly reduced calcium entry; inactive = no strong reduction.
In all, the deposit lists about 23,000 reagents; this is a random part of those that have a named target and a result. Of all reagents, 75 (0.33%) got an active call. 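Raw plate signals without normalisation; calls rest on plate z-scores that were not deposited; ratio present for only 364 wells.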 Not given: the dose of the treatment.

{"target gene": "Listericin (GeneID 36183)", "dsRNA": "DRSC07334", "calcium entry signal, replicate 1 (fluorescence units)": 3.33e7, "calcium entry signal, replicate 2 (fluorescence units)": 1.63e7, "resting calcium signal, replicate 1 (fluorescence units)": 1.59e7, "resting calcium signal, replicate 2 (fluorescence units)": 8.09e6, "Call": "inactive"}
{"target gene": "CG13806 (GeneID 38292)", "dsRNA": "DRSC08341", "calcium entry signal, replicate 1 (fluorescence units)": 2.78e7, "calcium entry signal, replicate 2 (fluorescence units)": 4.77e7, "resting calcium signal, replicate 1 (fluorescence units)": 1.55e7, "resting calcium signal, replicate 2 (fluorescence units)": 2.12e7, "Call": "inactive"}
{"target gene": "CG6191 (GeneID 36513)", "dsRNA": "DRSC05938", "calcium entry signal, replicate 1 (fluorescence units)": 3.26e7, "calcium entry signal, replicate 2 (fluorescence units)": 3.16e7, "resting calcium signal, replicate 1 (fluorescence units)": 1.45e7, "resting calcium signal, replicate 2 (fluorescence units)": 1.43e7, "Call": "inactive"}
{"target gene": "CG6191 (GeneID 36513)", "dsRNA": "DRSC23127", "calcium entry signal, replicate 1 (fluorescence units)": 3.62e7, "calcium entry signal, replicate 2 (fluorescence units)": 3.44e7, "resting calcium signal, replicate 1 (fluorescence units)": 1.92e7, "resting calcium signal, replicate 2 (fluorescence units)": 1.74e7, "Call": "inactive"}
{"target gene": "Abcd3 (GeneID 32992)", "dsRNA": "DRSC19488", "calcium entry signal, replicate 1 (fluorescence units)": 4.29e7, "calcium entry signal, replicate 2 (fluorescence units)": 2.84e7, "resting calcium signal, replicate 1 (fluorescence units)": 1.95e7, "resting calcium signal, replicate 2 (fluorescence units)": 1.27e7, "Call": "inactive"}
{"target gene": "wake (GeneID 42676)", "dsRNA": "DRSC16148", "calcium entry signal, replicate 1 (fluorescence units)": 3.94e7, "calcium entry signal, replicate 2 (fluorescence units)": 4.58e7, "resting calcium signal, replicate 1 (fluorescence units)": 1.92e7, "resting calcium signal, replicate 2 (fluorescence units)": 2.13e7, "Call": "inactive"}
{"target gene": "wake (GeneID 42676)", "dsRNA": "DRSC16149", "calcium entry signal, replicate 1 (fluorescence units)": 4.24e7, "calcium entry signal, replicate 2 (fluorescence units)": 4.77e7, "resting calcium signal, replicate 1 (fluorescence units)": 1.91e7, "resting calcium signal, replicate 2 (fluorescence units)": 1.93e7, "Call": "inactive"}
{"target gene": "mms4 (GeneID 36136)", "dsRNA": "DRSC06249", "calcium entry signal, replicate 1 (fluorescence units)": 4.91e7, "calcium entry signal, replicate 2 (fluorescence units)": 3.99e7, "resting calcium signal, replicate 1 (fluorescence units)": 2.37e7, "resting calcium signal, replicate 2 (fluorescence units)": 1.72e7, "Call": "inactive"}
{"target gene": "CG15563 (GeneID 43695)", "dsRNA": "DRSC15101", "calcium entry signal, replicate 1 (fluorescence units)": 3.56e7, "calcium entry signal, replicate 2 (fluorescence units)": 6.41e7, "resting calcium signal, replicate 1 (fluorescence units)": 1.96e7, "resting calcium signal, replicate 2 (fluorescence units)": 2.57e7, "Call": "inactive"}
{"target gene": "nSyb (GeneID 38196)", "dsRNA": "DRSC08727", "calcium entry signal, replicate 1 (fluorescence units)": 4.42e7, "calcium entry signal, replicate 2 (fluorescence units)": 4.14e7, "resting calcium signal, replicate 1 (fluorescence units)": 1.92e7, "resting calcium signal, replicate 2 (fluorescence units)": 1.90e7, "Call": "inactive"}
{"target gene": "nSyb (GeneID 38196)", "dsRNA": "DRSC22961", "calcium entry signal, replicate 1 (fluorescence units)": 3.12e7, "calcium entry signal, replicate 2 (fluorescence units)": 3.40e7, "resting calcium signal, replicate 1 (fluorescence units)": 1.52e7, "resting calcium signal, replicate 2 (fluorescence units)": 1.45e7, "Call": "inactive"}
{"target gene": "CG9452 (GeneID 40119)", "dsRNA": "DRSC11075", "calcium entry signal, replicate 1 (fluorescence units)": 3.06e7, "calcium entry signal, replicate 2 (fluorescence units)": 4.97e7, "resting calcium signal, replicate 1 (fluorescence units)": 1.39e7, "resting calcium signal, replicate 2 (fluorescence units)": 2.08e7, "Call": "inactive"}
{"target gene": "CG9452 (GeneID 40119)", "dsRNA": "DRSC23344", "calcium entry signal, replicate 1 (fluorescence units)": 3.15e7, "calcium entry signal, replicate 2 (fluorescence units)": 3.33e7, "resting calcium signal, replicate 1 (fluorescence units)": 2.03e7, "resting calcium signal, replicate 2 (fluorescence units)": 1.40e7, "Call": "inactive"}

Continued, starting with the last 3 of the part before.
{"target gene": "nSyb (GeneID 38196)", "dsRNA": "DRSC22961", "calcium entry signal, replicate 1 (fluorescence units)": 3.12e7, "calcium entry signal, replicate 2 (fluorescence units)": 3.40e7, "resting calcium signal, replicate 1 (fluorescence units)": 1.52e7, "resting calcium signal, replicate 2 (fluorescence units)": 1.45e7, "Call": "inactive"}
{"target gene": "CG9452 (GeneID 40119)", "dsRNA": "DRSC11075", "calcium entry signal, replicate 1 (fluorescence units)": 3.06e7, "calcium entry signal, replicate 2 (fluorescence units)": 4.97e7, "resting calcium signal, replicate 1 (fluorescence units)": 1.39e7, "resting calcium signal, replicate 2 (fluorescence units)": 2.08e7, "Call": "inactive"}
{"target gene": "CG9452 (GeneID 40119)", "dsRNA": "DRSC23344", "calcium entry signal, replicate 1 (fluorescence units)": 3.15e7, "calcium entry signal, replicate 2 (fluorescence units)": 3.33e7, "resting calcium signal, replicate 1 (fluorescence units)": 2.03e7, "resting calcium signal, replicate 2 (fluorescence units)": 1.40e7, "Call": "inactive"}
{"target gene": "CHMP2B (GeneID 38599)", "dsRNA": "DRSC10436", "calcium entry signal, replicate 1 (fluorescence units)": 6.30e7, "calcium entry signal, replicate 2 (fluorescence units)": 4.88e7, "resting calcium signal, replicate 1 (fluorescence units)": 3.85e7, "resting calcium signal, replicate 2 (fluorescence units)": 1.87e7, "Call": "inactive"}
{"target gene": "Ugt302E1 (GeneID 53508)", "dsRNA": "DRSC15635", "calcium entry signal, replicate 1 (fluorescence units)": 2.43e7, "calcium entry signal, replicate 2 (fluorescence units)": 2.52e7, "resting calcium signal, replicate 1 (fluorescence units)": 1.27e7, "resting calcium signal, replicate 2 (fluorescence units)": 1.27e7, "Call": "inactive"}
{"target gene": "GstT2 (GeneID 246386)", "dsRNA": "DRSC06244", "calcium entry signal, replicate 1 (fluorescence units)": 3.91e7, "calcium entry signal, replicate 2 (fluorescence units)": 4.68e7, "resting calcium signal, replicate 1 (fluorescence units)": 1.92e7, "resting calcium signal, replicate 2 (fluorescence units)": 2.23e7, "Call": "inactive"}
{"target gene": "CG9416 (GeneID 37223)", "dsRNA": "DRSC07339", "calcium entry signal, replicate 1 (fluorescence units)": 3.72e7, "calcium entry signal, replicate 2 (fluorescence units)": 3.75e7, "resting calcium signal, replicate 1 (fluorescence units)": 1.60e7, "resting calcium signal, replicate 2 (fluorescence units)": 1.71e7, "Call": "inactive"}
{"target gene": "Mhcl (GeneID 41955)", "dsRNA": "DRSC13130", "calcium entry signal, replicate 1 (fluorescence units)": 2.33e7, "calcium entry signal, replicate 2 (fluorescence units)": 2.30e7, "resting calcium signal, replicate 1 (fluorescence units)": 1.09e7, "resting calcium signal, replicate 2 (fluorescence units)": 1.04e7, "Call": "inactive"}
{"target gene": "Mhcl (GeneID 41955)", "dsRNA": "DRSC14216", "calcium entry signal, replicate 1 (fluorescence units)": 3.89e7, "calcium entry signal, replicate 2 (fluorescence units)": 4.95e7, "resting calcium signal, replicate 1 (fluorescence units)": 1.75e7, "resting calcium signal, replicate 2 (fluorescence units)": 7.34e7, "Call": "inactive"}
{"target gene": "Mhcl (GeneID 41955)", "dsRNA": "DRSC16753", "calcium entry signal, replicate 1 (fluorescence units)": 3.34e7, "calcium entry signal, replicate 2 (fluorescence units)": 5.27e7, "resting calcium signal, replicate 1 (fluorescence units)": 1.65e7, "resting calcium signal, replicate 2 (fluorescence units)": 6.48e7, "Call": "inactive"}
{"target gene": "ND2 (retired record) (GeneID 192474)", "dsRNA": "DRSC21274", "calcium entry signal, replicate 1 (fluorescence units)": 4.23e7, "calcium entry signal, replicate 2 (fluorescence units)": 3.20e7, "resting calcium signal, replicate 1 (fluorescence units)": 2.40e7, "resting calcium signal, replicate 2 (fluorescence units)": 1.63e7, "Call": "inactive"}
